Percent effect of library compounds

Mtb cholesterol medium: 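Growth of Mycobacterium tuberculosis over 4 days (cholesterol / DPPC medium with tyloxapol); the read-out is not stated. Concentration: 50 µM. Direction is inferred from retests: higher values go with more growth inhibition. About 69,000 compounds were tested under these conditions; 0.54% (about 370) showed 50% or more at least once.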
Mtb glucose medium: 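Growth of Mycobacterium tuberculosis over 3 days (7H9 medium with glucose and tyloxapol); the read-out is not stated. Concentration: 50 µM. Direction is inferred from retests: higher values go with more growth inhibition. Of about 69,000 compounds tested this way, about 760 (1.1%) reached 50% or more in at least one test.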

Each number is a percent effect as filed. How 0% and 100% were set is not recorded. Most values in the screen are low, and negative values occur. This is an unselected part of the compounds tested. Two or more numbers in one place are separate tests of the same structure; such repeats can differ widely.

Compound	Mtb cholesterol medium	Mtb glucose medium
Cc1ccc(CN2CCOC3(COCCN(S(C)(=O)=O)C3)C2)o1.O=C(O)C(F)(F)F (stereo not given)	-1.622	16.4 and 5.779
Cc1nn(C)cc1-c1ccnc(NCCN)n1	14.24	7.861
Cn1ccc(C(=O)NCc2ccccc2CN2CCCC2)cc1=O	-31.54	2.966
Cc1cccc(CNC2CC(=O)N(Cc3cccc(F)c3)C2)c1 (stereo not given)	11.49	-5.215
COC(=O)N1CCC(NC(=O)Cn2cc(C)c3ccccc32)CC1	-30.03	-0.4291
Cc1nc(C)n(CC2CCCN(CCOc3ccccc3C#N)C2)n1 (stereo not given)	-17.08	-6.857
CN(C)CCN(C)c1cc(N2CCN(c3ccccn3)CC2)ncn1	-11.08	-8.536
Cn1nccc1C(=O)N1CC[C@]2(C[C@H](OCc3ccccn3)CO2)C1.O=C(O)C(F)(F)F	-12 and 20.18	-10.48
CN(CCC(F)(F)F)C(=O)C1CSCN1C(=O)C(C)(C)C (stereo not given)	-49.59	-48.68
Cc1cnc(CCN(C)C(=O)c2cccc(N(C)C)c2)s1	-13.48	-17.65
CN(C)CC1CN(Cc2ccc3c(c2)OCO3)Cc2nccn2C1.O=C(O)C(F)(F)F.O=C(O)C(F)(F)F (stereo not given)	-22.18	-32.47
O=C1CCC(C(=O)N2CCOC(Cc3ccccc3Cl)C2)=NN1 (stereo not given)	13.34	0.1903
CCn1cnnc1C1CCN(C(=O)c2ccc(Cl)s2)CC1	-0.005787	-13.68
[H][C@]12CN(Cc3cccnc3OC)CC[C@@]1(O)CCN(C(=O)COC)C2	-1.044	3.102
Cc1nc(-c2c(C)noc2C)cc(C2CCN(S(=O)(=O)N(C)C)CC2)n1	-4.675 and -19.56	-4.497
CN1CCN(c2ccc(F)cc2NC(=O)NCC[S+](C)[O-])CC1 (stereo not given)	1.577	5.696
CN(Cc1ccc2c(c1)OCO2)Cc1nc(Cc2ccccc2)no1	42.8	17.55
O=C(c1cc(Cl)c2c(c1)OCO2)N1CCN(c2ncccn2)CC1	-21.95	-8.626
COC(=O)CCN1CCCC1c1ccccc1Cl (stereo not given)	8.673	-4.147
CC(C)(C)n1ncc2c1NC(=O)CC2c1cccs1 (stereo not given)	5.133	23.1
COc1ccc(CN2CCC[C@H]2c2nc(-c3cncnc3N)no2)cc1	-3.004	2.713 and 11.36
CNC(=O)C(C)(C)N1CCC[C@H]1C(=O)NC1CC1	1.228	-5.723 and 2.764
CC(CNC(=O)OC(C)(C)C)N(C)C(=O)COc1ccccc1C#N (stereo not given)	-18.56	-13.67
OC(CN1CCCCCCC1)c1ccc(F)cc1 (stereo not given)	-21.18	0.9823
NC(=O)CN1CCC(Nc2ccnc3ccc(Cl)cc23)CC1	-0.8382	34.78
O=C(c1cscn1)N(CCCO)S(=O)(=O)c1cccs1	0.6167	-4.589
Cc1nc(NS(=O)(=O)c2ccc(C)c(Br)c2)no1	5.546	7.408 and 17.96
O=C(c1ccc2[nH]cnc2c1)N1CCC(COc2ccccn2)CC1	-2.236	15.11
CCN1C(=O)CC[C@]12CC[C@@H](NC(=O)c1cc(C)on1)CC2	12.47	3.857
CCc1nc(CN2CCOC(CNc3cccnn3)C2)cs1 (stereo not given)	-3.342	48.59
CC(C)Oc1ncnc2c1CCN(Cc1ccoc1)CC2.O=C(O)C(F)(F)F	-18.39	-5.907 and -29.02
[H][C@]12CN(Cc3ccc(OC)cc3)C[C@@]1([H])S(=O)(=O)CC[C@@H]2C(=O)NC	-5.35 and 0.8463	10.89
CC(=O)N1CCC(N[C@@H]2CO[C@H](CNC(=O)C3CCCC3)[C@H]2O)CC1	-22.69	-14.71 and 11.27
Cc1cc(=O)[nH]c(-n2nc(C3CC3)cc2N)n1	43.31	78.46
Cc1ccc(OCc2ccc(C(=O)O)s2)cc1C	21.93	10.39
CCN(C(=O)Cc1ccc(NCc2nccn2C)cc1)c1ccccc1	17.43	22.23
CC(C)c1cnc(CN2CCCS2(=O)=O)o1	-10.93	-3.119
[H][C@]12CC[C@]([H])(CN(Cc3ccc4ccccc4n3)C1)N(CCOC)C2	14.32 and 13.79	45.14
CCS(=O)(=O)N[C@H]1CN(Cc2noc(COC)n2)C[C@@H]1C1CC1	3.734	-20.33 and -0.2856
Cc1cc(C(=O)N2CCn3cc(CN4CCCC4)nc3C2)no1	16.69 and -14.12	-8.227
CCOCCSc1nnc(-c2cn(CC)nc2OCC)n1C	-13.36	0.9945 and -17.01
Cc1nn(C)c(N2CCOCC2)c1CNC1CCc2ccccc2C1 (stereo not given)	7.861	2.547
Cc1noc(C)c1CCC(=O)NC(C)c1nnc2n1CCCCC2 (stereo not given)	0.06763	3.277 and 15.61
c1ccc(CN2CCC(Cc3noc(C4CC4)n3)CC2)cc1	-0.677 and 5.814	24.42
CCCc1nc(C)c(C(=O)Nc2cccc(C)n2)s1	-17.3	9.09
Cn1nc(C2CCCN(Cc3ccc(F)cc3F)C2)c2nccnc21 (stereo not given)	-5.645	-15.77
COc1ccc(C(=O)O)cc1-c1cccc(C(C)N(C)C)c1 (stereo not given)	-41.39	-39.99
Cc1[nH]c2ccc(CNC3CCN(Cc4ccccn4)CC3)cc2c1C	21.35	40.5
Cn1c(=O)oc2ccc(S(=O)(=O)N3CCC(c4ccccc4)C3)cc21 (stereo not given)	-44.25	-27.56
CC(=O)OC1CN(c2nc3c(C(F)(F)F)cccc3s2)C1	-1.209	1.461
COCC(O)CNc1cncc(Br)c1 (stereo not given)	3.818	-21.12
COc1ccc(N(Cc2ccco2)C(=O)C2CCOC2)cc1F (stereo not given)	-21.53	-8.096
Cc1ccc(C2CCCCCN2CCCS(C)(=O)=O)o1 (stereo not given)	4.811	2.862
Cc1nc(-c2cc(C(=O)NCC(C)(C)CO)c3ccccn23)cs1	-4.932	18.18 and 14.94
CC(C)c1nn(C)c(N(C)C)c1CNCc1ccccc1CO.Cl	-14.66	-0.3299
COCCC(=O)N1CCC2(CC1)CN(S(C)(=O)=O)Cc1ccccc1O2	0.2722 and -9.346	-21.04
O=C(NC1(c2nnn(CC3CC3)n2)CCCC1)c1ccccc1	8.25	-4.307
Cn1ncnc1-c1ccnc(NCc2ccccn2)n1	-23.06	40.81
Cc1nc(CC(=O)N2CCN(Cc3ccc(C#N)cc3)CC2)cs1	-21.89	-5.082
CNc1ncccc1C(=O)N1CCc2c(nc(N)[nH]c2=O)C1	-15.34	-2.43
O=C(Cc1csc(-c2ccc(Cl)cc2)n1)NC(C(=O)O)c1ccccc1 (stereo not given)	-8.606	-14.14
CCOC(=O)CCC(=O)N1CC(c2nc(Cc3ccccc3)no2)C1	15.96	4.57
CNC(=O)C1CN(c2cc(C)ncn2)CCN1Cc1ccccc1 (stereo not given)	-45.39	-35.43
N#Cc1ccc(NC2CCN(c3ncccn3)CC2)cc1Cl	12.8	3.943
CC1CCc2n[nH]c(C(=O)NCCCc3ccccn3)c2C1 (stereo not given)	-3.467	21.07
Cc1ncc(C(=O)NCCNc2ncnc3sccc23)s1	-17.03	-6.035 and -19.21
CC(=O)N(Cc1ccsc1)c1ccccc1	10.43	14.59

The first 8 entries again:

* Cc1ccc(CN2CCOC3(COCCN(S(C)(=O)=O)C3)C2)o1.O=C(O)C(F)(F)F (stereo not given) | Mtb cholesterol medium: -1.622%; Mtb glucose medium: 16.4% and 5.779%
* Cc1nn(C)cc1-c1ccnc(NCCN)n1 | Mtb cholesterol medium: 14.24%; Mtb glucose medium: 7.861%
* Cn1ccc(C(=O)NCc2ccccc2CN2CCCC2)cc1=O | Mtb cholesterol medium: -31.54%; Mtb glucose medium: 2.966%
* Cc1cccc(CNC2CC(=O)N(Cc3cccc(F)c3)C2)c1 (stereo not given) | Mtb cholesterol medium: 11.49%; Mtb glucose medium: -5.215%
* COC(=O)N1CCC(NC(=O)Cn2cc(C)c3ccccc32)CC1 | Mtb cholesterol medium: -30.03%; Mtb glucose medium: -0.4291%
* Cc1nc(C)n(CC2CCCN(CCOc3ccccc3C#N)C2)n1 (stereo not given) | Mtb cholesterol medium: -17.08%; Mtb glucose medium: -6.857%
* CN(C)CCN(C)c1cc(N2CCN(c3ccccn3)CC2)ncn1 | Mtb cholesterol medium: -11.08%; Mtb glucose medium: -8.536%
* Cn1nccc1C(=O)N1CC[C@]2(C[C@H](OCc3ccccn3)CO2)C1.O=C(O)C(F)(F)F | Mtb cholesterol medium: -12% and 20.18%; Mtb glucose medium: -10.48%

Measurements from “University of Dundee, Small-Polar-MMV Screening Library” (2021), ChEMBL document CHEMBL3988442.